These results are taken from the supplement of paper PMC10849652.

Sequences of proteins named here, by UniProt entry; tags and fusion partners are left off. A change or cut given only in a name is not applied to a line headed by its entry.
UniProt H7BZJ3: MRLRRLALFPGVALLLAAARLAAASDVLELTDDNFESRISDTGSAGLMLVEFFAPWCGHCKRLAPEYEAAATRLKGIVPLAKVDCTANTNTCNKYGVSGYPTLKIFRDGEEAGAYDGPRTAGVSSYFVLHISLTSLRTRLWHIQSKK
UniProt P08237: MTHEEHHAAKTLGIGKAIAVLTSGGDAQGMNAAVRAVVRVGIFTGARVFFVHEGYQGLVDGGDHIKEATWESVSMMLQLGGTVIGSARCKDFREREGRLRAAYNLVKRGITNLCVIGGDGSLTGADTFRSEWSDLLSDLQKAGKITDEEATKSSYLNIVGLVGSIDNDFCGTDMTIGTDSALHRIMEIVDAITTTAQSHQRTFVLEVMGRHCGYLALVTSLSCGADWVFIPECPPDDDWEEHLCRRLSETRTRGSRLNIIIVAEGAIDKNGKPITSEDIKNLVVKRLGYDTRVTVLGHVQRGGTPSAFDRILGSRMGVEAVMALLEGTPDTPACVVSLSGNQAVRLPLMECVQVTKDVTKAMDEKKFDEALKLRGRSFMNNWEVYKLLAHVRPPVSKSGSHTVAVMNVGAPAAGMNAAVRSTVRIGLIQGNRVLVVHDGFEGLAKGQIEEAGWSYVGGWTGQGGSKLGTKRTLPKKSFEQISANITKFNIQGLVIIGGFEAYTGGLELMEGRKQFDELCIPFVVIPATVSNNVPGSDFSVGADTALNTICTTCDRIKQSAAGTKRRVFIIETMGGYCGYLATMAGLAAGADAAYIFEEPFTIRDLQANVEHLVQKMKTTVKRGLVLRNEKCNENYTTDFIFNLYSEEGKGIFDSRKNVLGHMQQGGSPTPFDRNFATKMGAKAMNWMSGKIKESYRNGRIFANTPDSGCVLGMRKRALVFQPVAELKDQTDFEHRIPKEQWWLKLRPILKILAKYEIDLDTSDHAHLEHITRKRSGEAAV
UniProt Q9UKL6: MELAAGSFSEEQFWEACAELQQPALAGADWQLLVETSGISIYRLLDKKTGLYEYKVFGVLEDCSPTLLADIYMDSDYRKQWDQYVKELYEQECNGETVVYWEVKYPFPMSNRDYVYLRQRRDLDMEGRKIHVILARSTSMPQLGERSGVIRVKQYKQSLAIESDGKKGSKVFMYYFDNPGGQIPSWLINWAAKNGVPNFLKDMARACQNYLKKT
UniProt P57721, whole entry, looked up: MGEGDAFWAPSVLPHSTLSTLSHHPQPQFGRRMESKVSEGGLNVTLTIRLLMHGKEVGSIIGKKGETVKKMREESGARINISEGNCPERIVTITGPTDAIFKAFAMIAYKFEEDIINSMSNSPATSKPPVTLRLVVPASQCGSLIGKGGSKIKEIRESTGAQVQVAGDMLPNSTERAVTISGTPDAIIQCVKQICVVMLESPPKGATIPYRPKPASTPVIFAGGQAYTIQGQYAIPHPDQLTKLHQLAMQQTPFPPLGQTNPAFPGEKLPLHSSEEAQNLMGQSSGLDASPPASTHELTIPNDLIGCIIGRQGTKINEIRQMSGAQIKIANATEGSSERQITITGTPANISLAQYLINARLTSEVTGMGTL
UniProt Q8WUM4: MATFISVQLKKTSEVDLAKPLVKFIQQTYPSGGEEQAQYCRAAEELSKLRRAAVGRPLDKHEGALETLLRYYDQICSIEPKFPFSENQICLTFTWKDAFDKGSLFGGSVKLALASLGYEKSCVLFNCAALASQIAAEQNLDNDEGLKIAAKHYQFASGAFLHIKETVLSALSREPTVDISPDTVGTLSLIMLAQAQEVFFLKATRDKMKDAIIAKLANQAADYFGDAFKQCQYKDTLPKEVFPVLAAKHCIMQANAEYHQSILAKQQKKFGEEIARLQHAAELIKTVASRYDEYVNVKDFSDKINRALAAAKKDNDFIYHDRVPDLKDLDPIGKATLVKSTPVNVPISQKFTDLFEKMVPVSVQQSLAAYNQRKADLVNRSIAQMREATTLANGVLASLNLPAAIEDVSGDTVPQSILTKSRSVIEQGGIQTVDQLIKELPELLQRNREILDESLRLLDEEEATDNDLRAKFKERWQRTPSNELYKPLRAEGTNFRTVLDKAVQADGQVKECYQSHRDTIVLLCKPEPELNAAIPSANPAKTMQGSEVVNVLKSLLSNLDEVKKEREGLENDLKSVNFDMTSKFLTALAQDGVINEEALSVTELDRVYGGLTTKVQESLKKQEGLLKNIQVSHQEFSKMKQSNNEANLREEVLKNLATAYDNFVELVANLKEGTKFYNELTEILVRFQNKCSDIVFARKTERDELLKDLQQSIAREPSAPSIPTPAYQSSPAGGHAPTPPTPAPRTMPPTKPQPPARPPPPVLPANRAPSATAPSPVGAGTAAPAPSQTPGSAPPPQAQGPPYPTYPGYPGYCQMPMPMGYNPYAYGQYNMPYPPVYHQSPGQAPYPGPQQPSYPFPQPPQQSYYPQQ
UniProt Q9NQP4, whole entry, looked up: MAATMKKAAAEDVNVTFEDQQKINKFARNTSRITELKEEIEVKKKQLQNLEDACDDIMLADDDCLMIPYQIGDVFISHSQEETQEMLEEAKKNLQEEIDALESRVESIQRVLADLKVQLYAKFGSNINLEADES
UniProt P13667: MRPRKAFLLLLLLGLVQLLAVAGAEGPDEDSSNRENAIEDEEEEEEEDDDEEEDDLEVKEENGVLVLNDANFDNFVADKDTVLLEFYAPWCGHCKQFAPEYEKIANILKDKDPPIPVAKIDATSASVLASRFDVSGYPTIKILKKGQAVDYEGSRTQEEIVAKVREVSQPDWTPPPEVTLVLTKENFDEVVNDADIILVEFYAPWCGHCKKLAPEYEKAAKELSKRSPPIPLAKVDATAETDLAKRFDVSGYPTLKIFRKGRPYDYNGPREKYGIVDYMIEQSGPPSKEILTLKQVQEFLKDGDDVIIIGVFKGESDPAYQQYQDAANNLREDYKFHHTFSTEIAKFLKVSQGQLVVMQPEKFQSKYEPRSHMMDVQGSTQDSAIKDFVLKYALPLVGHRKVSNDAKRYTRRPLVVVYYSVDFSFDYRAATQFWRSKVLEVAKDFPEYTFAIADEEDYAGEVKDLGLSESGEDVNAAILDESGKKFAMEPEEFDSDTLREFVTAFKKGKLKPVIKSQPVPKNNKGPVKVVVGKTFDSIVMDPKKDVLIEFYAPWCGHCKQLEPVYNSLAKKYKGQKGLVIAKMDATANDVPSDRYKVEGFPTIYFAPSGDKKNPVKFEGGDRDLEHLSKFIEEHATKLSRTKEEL
UniProt Q6L8Q7: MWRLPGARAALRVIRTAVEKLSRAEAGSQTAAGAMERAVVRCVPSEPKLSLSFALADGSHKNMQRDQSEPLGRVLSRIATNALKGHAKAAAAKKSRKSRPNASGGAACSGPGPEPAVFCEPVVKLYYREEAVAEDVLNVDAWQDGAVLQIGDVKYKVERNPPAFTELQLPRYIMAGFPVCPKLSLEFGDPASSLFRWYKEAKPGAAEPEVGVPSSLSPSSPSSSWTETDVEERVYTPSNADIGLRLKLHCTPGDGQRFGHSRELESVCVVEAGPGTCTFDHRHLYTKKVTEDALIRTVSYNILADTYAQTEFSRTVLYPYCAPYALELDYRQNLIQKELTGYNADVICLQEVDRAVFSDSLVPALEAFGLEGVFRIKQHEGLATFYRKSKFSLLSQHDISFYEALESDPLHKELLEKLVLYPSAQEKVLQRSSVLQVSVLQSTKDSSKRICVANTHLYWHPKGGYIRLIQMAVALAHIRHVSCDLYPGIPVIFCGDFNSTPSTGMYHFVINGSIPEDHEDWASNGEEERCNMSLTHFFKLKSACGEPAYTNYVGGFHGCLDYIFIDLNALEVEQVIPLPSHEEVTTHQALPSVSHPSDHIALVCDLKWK
UniProt O00408, whole entry, looked up: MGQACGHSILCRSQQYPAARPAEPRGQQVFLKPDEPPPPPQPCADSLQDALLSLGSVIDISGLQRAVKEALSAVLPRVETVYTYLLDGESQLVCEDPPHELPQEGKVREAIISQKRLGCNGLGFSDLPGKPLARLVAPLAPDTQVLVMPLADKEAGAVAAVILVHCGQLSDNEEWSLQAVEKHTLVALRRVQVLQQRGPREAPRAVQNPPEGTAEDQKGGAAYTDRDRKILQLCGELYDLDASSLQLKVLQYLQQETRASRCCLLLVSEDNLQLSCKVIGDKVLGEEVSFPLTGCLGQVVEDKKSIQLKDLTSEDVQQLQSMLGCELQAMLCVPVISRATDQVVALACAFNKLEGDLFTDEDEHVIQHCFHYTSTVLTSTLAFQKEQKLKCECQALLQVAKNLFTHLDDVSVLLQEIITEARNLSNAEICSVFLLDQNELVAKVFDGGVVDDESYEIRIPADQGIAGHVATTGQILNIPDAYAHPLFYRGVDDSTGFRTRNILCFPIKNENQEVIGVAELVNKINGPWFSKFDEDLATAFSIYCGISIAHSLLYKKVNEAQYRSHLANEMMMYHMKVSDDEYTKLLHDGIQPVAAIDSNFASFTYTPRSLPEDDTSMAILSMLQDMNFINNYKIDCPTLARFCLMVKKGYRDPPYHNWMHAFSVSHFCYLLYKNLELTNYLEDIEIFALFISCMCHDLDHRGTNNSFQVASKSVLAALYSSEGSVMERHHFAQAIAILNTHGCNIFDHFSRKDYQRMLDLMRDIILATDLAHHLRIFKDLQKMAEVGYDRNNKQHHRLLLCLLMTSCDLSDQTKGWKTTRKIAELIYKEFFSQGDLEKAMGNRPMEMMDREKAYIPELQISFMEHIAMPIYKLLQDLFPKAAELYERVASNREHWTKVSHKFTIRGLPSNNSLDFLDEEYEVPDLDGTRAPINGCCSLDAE
UniProt Q15366, whole entry, looked up: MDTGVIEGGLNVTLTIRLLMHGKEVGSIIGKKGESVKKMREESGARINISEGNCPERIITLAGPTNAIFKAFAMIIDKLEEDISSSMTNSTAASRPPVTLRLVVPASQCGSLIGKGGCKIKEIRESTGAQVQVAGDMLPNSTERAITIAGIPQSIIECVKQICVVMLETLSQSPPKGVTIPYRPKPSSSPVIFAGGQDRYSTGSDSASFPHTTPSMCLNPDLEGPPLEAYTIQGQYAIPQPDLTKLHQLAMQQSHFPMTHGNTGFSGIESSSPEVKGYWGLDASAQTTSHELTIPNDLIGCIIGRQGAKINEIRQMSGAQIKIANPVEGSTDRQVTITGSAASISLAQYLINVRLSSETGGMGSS
UniProt Q9UHV9, whole entry, looked up: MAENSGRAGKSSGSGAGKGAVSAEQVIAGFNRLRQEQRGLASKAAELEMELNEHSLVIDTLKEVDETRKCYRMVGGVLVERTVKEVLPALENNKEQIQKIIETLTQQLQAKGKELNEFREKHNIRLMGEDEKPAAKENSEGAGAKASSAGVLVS
UniProt Q9BUL8: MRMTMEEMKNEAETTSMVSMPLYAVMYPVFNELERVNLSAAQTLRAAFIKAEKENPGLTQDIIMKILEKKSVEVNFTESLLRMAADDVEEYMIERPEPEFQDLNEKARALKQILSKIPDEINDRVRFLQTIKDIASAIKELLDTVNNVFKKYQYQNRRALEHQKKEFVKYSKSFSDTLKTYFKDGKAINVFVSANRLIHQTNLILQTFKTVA
UniProt Q6ZW49, whole entry, looked up: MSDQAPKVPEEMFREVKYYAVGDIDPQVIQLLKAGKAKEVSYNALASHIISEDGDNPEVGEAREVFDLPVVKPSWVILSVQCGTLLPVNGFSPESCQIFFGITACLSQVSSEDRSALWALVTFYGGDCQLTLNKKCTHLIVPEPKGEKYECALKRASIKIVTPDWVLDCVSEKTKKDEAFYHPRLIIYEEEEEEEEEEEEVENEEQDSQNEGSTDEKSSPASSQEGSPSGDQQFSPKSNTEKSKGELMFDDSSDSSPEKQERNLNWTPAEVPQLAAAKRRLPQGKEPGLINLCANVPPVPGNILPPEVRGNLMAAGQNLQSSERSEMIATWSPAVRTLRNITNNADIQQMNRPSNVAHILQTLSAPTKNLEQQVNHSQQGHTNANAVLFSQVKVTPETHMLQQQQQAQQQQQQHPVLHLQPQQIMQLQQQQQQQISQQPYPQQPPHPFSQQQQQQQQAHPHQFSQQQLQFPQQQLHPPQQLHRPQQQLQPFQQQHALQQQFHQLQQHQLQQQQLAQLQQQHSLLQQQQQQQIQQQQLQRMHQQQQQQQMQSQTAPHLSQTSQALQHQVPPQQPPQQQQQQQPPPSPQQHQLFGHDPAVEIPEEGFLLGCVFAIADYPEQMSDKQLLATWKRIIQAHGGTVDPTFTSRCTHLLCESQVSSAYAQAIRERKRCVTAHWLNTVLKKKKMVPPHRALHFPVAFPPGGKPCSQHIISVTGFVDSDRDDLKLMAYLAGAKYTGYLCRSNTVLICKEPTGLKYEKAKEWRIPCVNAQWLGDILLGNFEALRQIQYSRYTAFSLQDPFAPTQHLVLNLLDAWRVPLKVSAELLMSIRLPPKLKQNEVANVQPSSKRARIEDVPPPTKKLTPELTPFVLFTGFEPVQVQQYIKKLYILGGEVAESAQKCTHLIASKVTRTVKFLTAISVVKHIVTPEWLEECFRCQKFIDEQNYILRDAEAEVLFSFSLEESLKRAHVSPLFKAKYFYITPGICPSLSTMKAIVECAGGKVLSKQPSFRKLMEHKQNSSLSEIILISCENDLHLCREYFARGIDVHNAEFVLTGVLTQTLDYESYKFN

This is one part of the list.

Compound in the assay: Cc1cccc(CC(=O)N2CCc3c2ccc(-c2cn(C)c4ncnc(N)c24)c3F)n1
The assay is described as follows: log2 fold change, soluble protein after heating vs DMSO (PISA); higher = thermal stabilisation; K562 lysate, 10 uM; active = over 0.2 and 3.5 SD of the protein, either way, in both replicates (recomputed). Summed up:
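Thermal stability, expressed as log-two fold change relative to solvent controls, is given from duplicates. Crude K562 extract in PBS pH 7.4 with 1 mM MgCl2, at 1 mg/mL protein, was treated with 10 μM compound for 30 min and heated in aliquots for 3 min across 48°C-58°C. After pooling, adjustment to 0.5% NP-40 at 4°C and centrifugation at 21,000xg for 90 min, supernatant protein was measured by TMTpro 16plex LC-MS/MS with channel sums equalised.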
Consider PDCL3 (UniProt Q9H2J4), for which the log2 fold change is inactive: -0.008. In the case of PATL1 (UniProt Q86TB9) it was inactive: -0.005; in that of PDIA3 (UniProt H7BZJ3), inactive: 0.2. With PARN (UniProt O95453), the log2 fold change was inactive: -0.013.

On to PEX5 isoform 4 (UniProt P50542), for which the log2 fold change is inactive: 0. The result for PFKM isoform 3 (UniProt P08237) reads inactive: 0.023; that for PCTP (UniProt Q9UKL6), inactive: 0.15. In the case of PCBP3 (UniProt P57721) it was inactive: 0.026. The result for PDCD6IP (UniProt Q8WUM4) reads inactive: 0.012. As to PDCL (UniProt Q13371), the log2 fold change is inactive: 0.044. In the case of PFDN4 (UniProt Q9NQP4) it was inactive: -0.049; in that of PCBP2 (UniProt H3BRU6), inactive: -0.041. In the case of PDCD6IP isoform 2 (UniProt Q8WUM4) it was inactive: -0.019; in that of PDIA4 (UniProt P13667), inactive: -0.045.

Regarding PDE12 (UniProt Q6L8Q7), the log2 fold change was inactive: -0.015.

Consider PCYT2 isoform 3 (UniProt Q99447), for which the log2 fold change was inactive: 0.018. As for PDE2A (UniProt O00408), the log2 fold change is inactive: 0.041. On to PCBP2 isoform 8 (UniProt Q15366), for which the log2 fold change was inactive: 0.036.

Regarding PFDN6 (UniProt O15212), the log2 fold change is inactive: -0.14. In the case of PFDN2 (UniProt Q9UHV9) it was inactive: -0.13; in that of PDCD10 (UniProt Q9BUL8), inactive: 0.031; in that of PAXIP1 (UniProt Q6ZW49), inactive: -0.054. The result for PDRG1 (UniProt Q9NUG6) reads inactive: 0.035.
